Source: patent US20190359955A1
No constants are given. Whether binding was seen depends on the method and setting. In cells and extracts the contact can be indirect. Some results given as binding are weak or reduced against the parent protein; the word gives no strength.

The chains behind the UniProt entries cited, without tags or fusion partners. Where a name states a change or a piece, a line headed by the entry shows the natural chain unless it says otherwise. Residues count along the entry.
UniProt P0CE47, residues 2-394: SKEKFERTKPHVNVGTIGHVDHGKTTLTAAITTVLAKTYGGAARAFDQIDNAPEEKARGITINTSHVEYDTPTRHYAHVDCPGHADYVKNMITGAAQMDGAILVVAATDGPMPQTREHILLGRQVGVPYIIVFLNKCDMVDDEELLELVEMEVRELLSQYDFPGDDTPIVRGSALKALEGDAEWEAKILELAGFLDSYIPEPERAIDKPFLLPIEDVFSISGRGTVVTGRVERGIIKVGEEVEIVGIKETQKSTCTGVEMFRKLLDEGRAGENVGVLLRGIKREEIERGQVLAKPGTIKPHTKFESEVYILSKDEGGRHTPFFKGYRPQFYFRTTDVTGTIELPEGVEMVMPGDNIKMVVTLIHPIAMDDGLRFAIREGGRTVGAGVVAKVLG
UniProt A7ZHR0: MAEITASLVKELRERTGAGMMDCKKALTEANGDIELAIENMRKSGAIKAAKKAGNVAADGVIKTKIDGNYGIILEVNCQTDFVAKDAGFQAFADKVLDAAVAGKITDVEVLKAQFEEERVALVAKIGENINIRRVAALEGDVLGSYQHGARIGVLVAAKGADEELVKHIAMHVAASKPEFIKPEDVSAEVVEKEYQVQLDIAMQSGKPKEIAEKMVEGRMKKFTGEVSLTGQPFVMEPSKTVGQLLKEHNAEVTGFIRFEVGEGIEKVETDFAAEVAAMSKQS

Target: protein Tu (UniProt P0CE47)
Assay: co-purification in a protein purification experiment (data not shown)

In the case of “elongation factor Ts (Tsf) (from UniProt A7ZHR0 1-283)”, the binding is reported as “binds”.
